Laboratory results from patent US5118705A, “Water soluble salts of purpuromycin and pharmaceutical formulations thereof” (Gruppo Lepetit S.p.A., priority 1990, dated 1992).

Key:
[1] = test system: Candida albicans ATCC 10231; assay: Activity against Candida strains, two-fold dilution method; assay type: cell-based; details: ATCC10231, 20 h, comparative tests, antibacterial agents
Protocol: (§1) This set of experiments included also one strain each of two other Candida species, Candida tropicalis and Candida kruzei. The M.I.C. were determined by the two-fold dilution method in buffered (0.01 M phosphate buffer, pH 7.4) yeast nitrogen base medium (Difco) supplemented with 1.5 g/liter asparagine in microtiter trays. Inocula were approximately 10^4 colony forming units/ml. Incubation was for 20 h at 30° C. Purpuromycin was dissolved in DMSO and added to the cultures as above.

[2] = test system: Candida albicans SKF 2270; assay: as above; assay type: cell-based; details: SKF2270, 20 h, comparative tests, antibacterial agents
Protocol: as §1

MIC [1]: > 128 µg/mL | MIC [2]: > 128 µg/mL
Compound: CCC[C@@H]1C[C@@H](C(=O)N[C@@H]([C@H]2O[C@H](SC)[C@H](O)[C@@H](O)[C@H]2O)[C@H](C)Cl)N(C)C1 [clindamycin]
